Measured values: PMC4606566
These are yes or no findings as the source states them, for the method shown. Binding seen in cells or lysates may run through a third protein. Some results given as binding are weak or reduced against the parent protein; the word gives no strength.

Protein sequences, listed by entry. Tags and fused reporters are not part of them.
UniProt Q2MJT0: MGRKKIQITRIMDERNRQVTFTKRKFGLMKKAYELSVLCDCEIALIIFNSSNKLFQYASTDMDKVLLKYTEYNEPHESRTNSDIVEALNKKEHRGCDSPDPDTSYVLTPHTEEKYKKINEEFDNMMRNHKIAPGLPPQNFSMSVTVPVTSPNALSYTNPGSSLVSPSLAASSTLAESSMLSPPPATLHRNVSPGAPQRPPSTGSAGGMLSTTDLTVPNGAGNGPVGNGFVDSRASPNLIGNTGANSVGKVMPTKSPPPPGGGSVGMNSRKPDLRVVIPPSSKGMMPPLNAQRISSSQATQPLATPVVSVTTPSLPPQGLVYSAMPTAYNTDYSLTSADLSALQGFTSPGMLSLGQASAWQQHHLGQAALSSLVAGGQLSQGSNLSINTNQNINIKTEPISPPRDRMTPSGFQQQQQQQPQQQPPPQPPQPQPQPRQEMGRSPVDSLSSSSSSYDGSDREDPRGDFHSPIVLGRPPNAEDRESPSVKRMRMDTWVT

Columns and labels:
[1] = target: T1, PIMT (PRIP Interacting protein with Methyl Transferase domain) (rat (endogenous in L6)) (UniProt P85107); assay: co-IP; un-stimulated L6 myoblasts; 4 mg lysate (120 mM NaCl, 1% Triton X-100, 20 mM Tris-HCl pH 7.5, 10% glycerol, 2 mM EDTA) immunoprecipitated with anti-PIMT, blotted for Med-1, PGC-1α and MEF2A
T1 sequence: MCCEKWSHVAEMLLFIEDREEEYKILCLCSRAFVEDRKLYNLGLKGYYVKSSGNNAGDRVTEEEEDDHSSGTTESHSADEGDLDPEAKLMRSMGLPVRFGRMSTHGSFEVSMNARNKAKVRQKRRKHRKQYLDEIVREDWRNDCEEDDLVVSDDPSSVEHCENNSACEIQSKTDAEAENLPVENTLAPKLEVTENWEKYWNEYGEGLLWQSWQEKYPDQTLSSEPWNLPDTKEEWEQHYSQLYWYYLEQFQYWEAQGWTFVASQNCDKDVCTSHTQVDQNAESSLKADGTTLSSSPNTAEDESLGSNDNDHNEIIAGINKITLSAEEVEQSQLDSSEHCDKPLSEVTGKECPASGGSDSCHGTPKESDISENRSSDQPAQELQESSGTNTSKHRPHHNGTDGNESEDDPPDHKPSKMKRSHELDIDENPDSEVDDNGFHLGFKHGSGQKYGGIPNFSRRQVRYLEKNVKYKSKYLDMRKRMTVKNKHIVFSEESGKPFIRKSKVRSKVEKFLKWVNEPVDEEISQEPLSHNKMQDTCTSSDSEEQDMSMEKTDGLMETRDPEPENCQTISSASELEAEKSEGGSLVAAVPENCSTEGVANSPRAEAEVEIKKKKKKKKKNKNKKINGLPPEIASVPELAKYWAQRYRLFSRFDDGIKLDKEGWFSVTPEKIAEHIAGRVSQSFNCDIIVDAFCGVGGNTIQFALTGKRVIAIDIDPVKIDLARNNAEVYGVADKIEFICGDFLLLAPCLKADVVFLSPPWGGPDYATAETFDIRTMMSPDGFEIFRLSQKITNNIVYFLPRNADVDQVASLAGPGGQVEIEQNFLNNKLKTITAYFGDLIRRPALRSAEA

[2] = target: T1, PIMT (PRIP Interacting protein with Methyl Transferase domain) (rat (endogenous in L6)); assay: co-IP; TNF-α treated L6 myoblasts (2 ng/ml); 4 mg lysate (120 mM NaCl, 1% Triton X-100, 20 mM Tris-HCl pH 7.5, 10% glycerol, 2 mM EDTA) immunoprecipitated with anti-PIMT, blotted for Med-1, PGC-1α and MEF2A

binding [1]: binds
Substance: MEF2A (from UniProt Q2MJT0 1-495)
binding [2]: no binding (condition: in TNF-α exposed L6 myoblasts)
